Laboratory results as given in doi:10.1101/2025.10.15.682725.
These are yes or no findings as the source states them, for the method shown. In cells and extracts the contact can be indirect. A result given as binding can be weak or reduced; the word gives no strength. Tags and fused reporters may be left off the sequences shown.

Biological target: T1, MA-EcMurJ(2-511)-3xFLAG (E. coli lipid II flippase MurJ) (E. coli (JCM20135)) (UniProt P0AF16)
T1 sequence: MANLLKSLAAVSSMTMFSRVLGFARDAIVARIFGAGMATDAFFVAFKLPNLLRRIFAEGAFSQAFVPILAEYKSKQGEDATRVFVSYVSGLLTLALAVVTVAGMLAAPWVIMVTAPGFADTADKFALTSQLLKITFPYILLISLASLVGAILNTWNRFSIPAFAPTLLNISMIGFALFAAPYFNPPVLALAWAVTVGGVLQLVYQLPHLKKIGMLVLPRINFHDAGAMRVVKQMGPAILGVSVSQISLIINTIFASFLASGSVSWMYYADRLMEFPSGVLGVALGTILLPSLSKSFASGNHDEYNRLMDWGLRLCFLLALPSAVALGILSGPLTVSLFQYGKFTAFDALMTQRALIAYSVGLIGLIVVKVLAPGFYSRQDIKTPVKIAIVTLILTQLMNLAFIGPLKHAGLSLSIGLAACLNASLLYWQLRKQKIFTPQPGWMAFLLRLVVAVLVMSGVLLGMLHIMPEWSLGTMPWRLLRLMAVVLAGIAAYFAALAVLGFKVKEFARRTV
Experiment: cryo-EM structure

“His10-Sgl^PP7 (single-gene lysis protein of Pseudomonas aeruginosa phage PP7)” was tested. Which binding did it give?
Its binding is “binds”.
